# According to ChEMBL document CHEMBL3352189 (J Med Chem, 2014):
# By UniProt entry, the sequences of proteins in these tests, tags left out.
# UniProt P11712, whole entry: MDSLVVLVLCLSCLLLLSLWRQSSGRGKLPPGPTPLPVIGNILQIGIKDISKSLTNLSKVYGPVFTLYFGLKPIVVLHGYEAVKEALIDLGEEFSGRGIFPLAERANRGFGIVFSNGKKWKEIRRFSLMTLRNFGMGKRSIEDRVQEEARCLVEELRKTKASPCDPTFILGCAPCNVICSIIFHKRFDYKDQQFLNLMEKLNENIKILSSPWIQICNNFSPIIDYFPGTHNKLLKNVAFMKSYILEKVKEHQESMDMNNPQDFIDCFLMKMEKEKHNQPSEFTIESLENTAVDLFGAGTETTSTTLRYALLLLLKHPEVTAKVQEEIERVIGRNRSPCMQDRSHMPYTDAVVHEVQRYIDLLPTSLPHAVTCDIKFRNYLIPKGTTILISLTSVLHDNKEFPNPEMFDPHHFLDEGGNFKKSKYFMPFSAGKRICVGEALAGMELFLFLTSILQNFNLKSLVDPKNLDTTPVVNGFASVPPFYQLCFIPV
# Target: Cytochrome P450 2C9 (Homo sapiens, UniProt P11712)
# Assay: Inhibition of human CYP2C9 at 10 uM
# Type: ADME
smiles,measurement,value
Nc1ccc(S(=O)(=O)Nc2ccnn2-c2ccccc2)cc1 [SULFAPHENAZOLE],inhibition (INH),96%
